# Some of the results follow.
# Protein sequences, listed by entry. Tags and fused reporters are not part of them.
# UniProt Q0JBA9, entry or part of it: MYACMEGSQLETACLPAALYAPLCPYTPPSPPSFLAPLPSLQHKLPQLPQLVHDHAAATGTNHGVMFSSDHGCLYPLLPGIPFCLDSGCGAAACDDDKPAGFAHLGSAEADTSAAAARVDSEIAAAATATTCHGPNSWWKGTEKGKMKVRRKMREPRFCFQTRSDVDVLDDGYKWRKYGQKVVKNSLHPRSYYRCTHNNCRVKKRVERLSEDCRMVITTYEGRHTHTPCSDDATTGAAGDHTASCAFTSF
# Molecular target: OsWRKY34 (Oryza sativa, UniProt Q0JBA9 1-250)
# Assay: protein-binding microarray (RPBM); PBS, 2% BSA, 51.3 ng/ul salmon testes DNA, 50 uM zinc acetate, 200 nM TF, 25 C, 1 h; high values mean tight binding
# Settings: protein: recombinant; tags: N-terminal polyhistidine and DsRed monomer fusion (pET32a); label: CyDye5-dUTP incorporated in the synthesized complementary strand; 3' TTTTT single-stranded linker to array surface; dsDNA, one strand shown
# Summary of the method: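 A custom Agilent array was converted to double-stranded form by primer extension with Cy5-dUTP and blocked with 2% BSA. Protein at 200 nM in PBS with 2% BSA, salmon testes DNA and 50 µM zinc acetate was applied for 1 h at 25 °C, followed by washing. The proteins were polyhistidine–DsRed N-terminal fusions of transcription factors, expressed in E. coli BL21-CodonPlus and Ni–NTA-purified. The binding signal is per-feature fluorescence intensity (arbitrary units) from an Axon 4000B scanner.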
row,Sequence,binding signal
1,CCAGCCCCTCAACCTTCGGTTTGCAGACAGTTTGCCAGCTCGGAGTCACCTAGTGCAG,8380 fluorescence intensity (a.u.)
2,CAAACCTACTACCACTTCGATCACTGTACCTATAAATTTTCGGAGTCACCTAGTGCAG,9410 fluorescence intensity (a.u.)
3,CCTAAAACATCGCAATTGATGTCTATGCTCGTACATTTTCCGGAGTCACCTAGTGCAG,11500 fluorescence intensity (a.u.)
4,GCTAGCGCTATATATATTTTCTCAGTTTGCTTACTACTATCGGAGTCACCTAGTGCAG,12200 fluorescence intensity (a.u.)
5,AGTCCCAAGTCACAACTGACAACAAGGCAACTACTACTACCGGAGTCACCTAGTGCAG,8360 fluorescence intensity (a.u.)
6,GGGGTGTTCACTGAAATGCTATTTTGGGTCTTTTTGAGTACGGAGTCACCTAGTGCAG,15100 fluorescence intensity (a.u.)
7,AATAATGCTTACGACCCCTAATTTCCATCCCCACCATTGACGGAGTCACCTAGTGCAG,8120 fluorescence intensity (a.u.)
8,TCTCTTTAATAGTACCTACATATACTGCTGAACTGAAGACCGGAGTCACCTAGTGCAG,10100 fluorescence intensity (a.u.)
9,CCTCCGTCCCTCGCCCGCGCGAGCTACGTACTACGTTTACCGGAGTCACCTAGTGCAG,8530 fluorescence intensity (a.u.)
10,AAAAATACATAGTATAGTTGTCCACGTGCCTTGTTTTTTCCGGAGTCACCTAGTGCAG,10000 fluorescence intensity (a.u.)
11,CCCCGTTCGATCTGACAATACGCCATGTCACCTAACAAGACGGAGTCACCTAGTGCAG,8560 fluorescence intensity (a.u.)
12,GATTGTTCATTTCACTTGTTCTGTGCTATTCTCTGTTTGTCGGAGTCACCTAGTGCAG,10800 fluorescence intensity (a.u.)
13,AACAAAATCTCCTTACTACCTACTAGCTGCCTTTGCTTCTCGGAGTCACCTAGTGCAG,8380 fluorescence intensity (a.u.)
14,TTACAGGCATCTTCATCGTTTGTTCTTCAGCTTATCAACTCGGAGTCACCTAGTGCAG,8210 fluorescence intensity (a.u.)
15,CTTTGCCACCTTTCGGTGTGATCTTGGCGTTGCCCTTCTCCGGAGTCACCTAGTGCAG,8640 fluorescence intensity (a.u.)
16,GGTCCCTAAACTTGCTTAGCCGTACATCACCTGTCCAAATCGGAGTCACCTAGTGCAG,8710 fluorescence intensity (a.u.)
17,GGTCAATGGCCGTCGTCGGTCGCATGCAGCTTCACGTTTCCGGAGTCACCTAGTGCAG,8530 fluorescence intensity (a.u.)
18,CATTTTACATGTTCTGCAGCATTCTCTTATGTAATTCAAACGGAGTCACCTAGTGCAG,8780 fluorescence intensity (a.u.)
19,GTTCCGTTTTCCGCGCGCACGCTTCCCAAACTATTAAATGCGGAGTCACCTAGTGCAG,11900 fluorescence intensity (a.u.)
20,GTCTGTCTTCGTCACCCCTGCCGCTGCCGCTGCCGCTGCCCGGAGTCACCTAGTGCAG,8380 fluorescence intensity (a.u.)
21,ATGGCTATTACCTGGTTGGACGAGTGCATTTATTGTTTATCGGAGTCACCTAGTGCAG,8390 fluorescence intensity (a.u.)

row,Sequence,binding signal
1,GCCATTTTGCACCTTAATTAATTTTATGCTGTCTATTCTCCGGAGTCACCTAGTGCAG,11300 fluorescence intensity (a.u.)
2,TGGCTATAAATACTTCCTCTCACCAATTGCCCACATAACTCGGAGTCACCTAGTGCAG,8070 fluorescence intensity (a.u.)
3,CACCAACCCATTTCCAGAAAATTCCTCTCACTGCGTCATGCGGAGTCACCTAGTGCAG,8280 fluorescence intensity (a.u.)
4,ATCGTCCGTCAAGCTTCTCCTTGCCGCTCATTTGGCTTAGCGGAGTCACCTAGTGCAG,11000 fluorescence intensity (a.u.)
5,CGTTTCTGCTCGCGCCTTCTTCTCGTTCTCATCATTTTTCCGGAGTCACCTAGTGCAG,10400 fluorescence intensity (a.u.)
6,CCATTATCCATACGTTTTTCTCCACATCACTCGCCGGCCGCGGAGTCACCTAGTGCAG,11800 fluorescence intensity (a.u.)
7,AGTGTGTTCTTTTCTCCTTTATTAACTCTACTTTTTCATCCGGAGTCACCTAGTGCAG,9390 fluorescence intensity (a.u.)
8,AATCTGTGGCGATAACCTGTATGCTCACACACTTGCCTCTCGGAGTCACCTAGTGCAG,8610 fluorescence intensity (a.u.)
9,CGCCGTCGTTAGTCCTGCTGCTTCCGCCGCATCCATCCTGCGGAGTCACCTAGTGCAG,11100 fluorescence intensity (a.u.)
10,CTTTTTTTTTCTTTCTTCATTTTCTTTTCCCATTGACTTCCGGAGTCACCTAGTGCAG,12300 fluorescence intensity (a.u.)
11,TAATGCCGTTTCGCGTTGCCACGCTCTCACTCTCTTTTGCCGGAGTCACCTAGTGCAG,12000 fluorescence intensity (a.u.)
12,ACCCTCCTGGCCTCCTCGGCGCCACCCGTTGCCCGCCGCGCGGAGTCACCTAGTGCAG,8270 fluorescence intensity (a.u.)
13,CCTGGCTTGTTCATTCTGCTTGCCCTGCATTGCACAGTACCGGAGTCACCTAGTGCAG,9130 fluorescence intensity (a.u.)
14,TTTTTTTTTCCTGGTTTACCGCTTGAGATTGTTTTCTTCACGGAGTCACCTAGTGCAG,8180 fluorescence intensity (a.u.)
15,CTGCCTGCGCTGCGTTCTCCTTGTGCTTGTGTGCGTGTGACGGAGTCACCTAGTGCAG,13900 fluorescence intensity (a.u.)
16,TACTTTCTTCGTCCTCGCCTCGTCGCGTCGCTCTGTCTTCCGGAGTCACCTAGTGCAG,13400 fluorescence intensity (a.u.)
17,GTCTAATAAGTTCATTCTTGACATCTCCCATTTATCTCAACGGAGTCACCTAGTGCAG,8590 fluorescence intensity (a.u.)
18,CCTCATTTTCTTGTGAAATTTTTGGTATTGCATGATGCTACGGAGTCACCTAGTGCAG,8640 fluorescence intensity (a.u.)
19,CTTTTCGCCATTCAAGGAATTACCTCGTGGGCTATATGTACGGAGTCACCTAGTGCAG,8580 fluorescence intensity (a.u.)
20,CTTGTTTTTCTCATTAGTCTATATTTAATACTTAAAATATCGGAGTCACCTAGTGCAG,8440 fluorescence intensity (a.u.)
21,CATCTATCAAAGGTACATATATTTTCACTTTTTCAGACTACGGAGTCACCTAGTGCAG,8200 fluorescence intensity (a.u.)

row,Sequence,binding signal
1,TTGAAGGAACCCTATAGTTTTCACTTCAACATCATATTACCGGAGTCACCTAGTGCAG,8050 fluorescence intensity (a.u.)
2,TATTGGGCTTGAGGTTTTGTGGCCCGTAAAGGGAGGGGTGCGGAGTCACCTAGTGCAG,8110 fluorescence intensity (a.u.)
3,AGCTCCTTATTCGTCGCATAATTTTTCACGATCTCGCAGACGGAGTCACCTAGTGCAG,11400 fluorescence intensity (a.u.)
4,ATGGCTTCTCTCTCTGCTGTGTGTTCAGGGGTCGGGGATCCGGAGTCACCTAGTGCAG,15900 fluorescence intensity (a.u.)
5,TACTGCCACACTTCGTCAGGAACCAGCACCGCCTCCTCGACGGAGTCACCTAGTGCAG,8110 fluorescence intensity (a.u.)
6,CAGGCACCCTCTCGCACTCTCCACCGATCCACCAACACCACGGAGTCACCTAGTGCAG,8830 fluorescence intensity (a.u.)
7,CCATCGCCGTCCAGTTAGTCTCCGTTAGTACTGTACAAATCGGAGTCACCTAGTGCAG,10000 fluorescence intensity (a.u.)
8,TGCTGTCTATGCTCTGCATTTTTTTATTTCCATTTAAGGTCGGAGTCACCTAGTGCAG,11700 fluorescence intensity (a.u.)
9,CGCCGTCGTCGCGCCCCGCGCCGCCCTCAATTGCCGACGACGGAGTCACCTAGTGCAG,9170 fluorescence intensity (a.u.)
10,ACTCGCTCACTCTCTCACTCTCACTGCCTCACCAACCAGTCGGAGTCACCTAGTGCAG,9800 fluorescence intensity (a.u.)
11,GCCCTGTGCTTTGCTCGCTCGCTGCTTTTCTCTTTCTTAACGGAGTCACCTAGTGCAG,10700 fluorescence intensity (a.u.)
12,GGGTGCTTTCTTTTCCAGTTACCTCCCACCTTAGGAACCCCGGAGTCACCTAGTGCAG,8060 fluorescence intensity (a.u.)
13,TGCTCGTGCCCCTCCGCCCATCACACTGATCCGCACCGGACGGAGTCACCTAGTGCAG,9480 fluorescence intensity (a.u.)
14,CTGCAGATTCATTGTTACTAGTCTTAGTCATACTTGTTACCGGAGTCACCTAGTGCAG,10900 fluorescence intensity (a.u.)
15,GCGTCCAGTCTGGAAGGACGAGGGTGGGCCAATTAGTTGCCGGAGTCACCTAGTGCAG,10300 fluorescence intensity (a.u.)
16,GGTTGGATAGCGCTTGTGGTGTGGGCAGGGTTTACACAGACGGAGTCACCTAGTGCAG,12500 fluorescence intensity (a.u.)
17,GCTCATCTCTCCGCGTGCTTCTTCTTCTTCTCTCTCTAAACGGAGTCACCTAGTGCAG,13000 fluorescence intensity (a.u.)
18,CCTTAATTCCATCTCCTCTCCGTTTTCTTGATTAAATCCTCGGAGTCACCTAGTGCAG,8430 fluorescence intensity (a.u.)
19,TCGAACCCGCTCCAAGTCCTGTACCTCGCCGTACGTCAGCCGGAGTCACCTAGTGCAG,9350 fluorescence intensity (a.u.)
20,GCCTCTGTCTCCGCCGGTGCCGCGACGGCGTTGGCCAACCCGGAGTCACCTAGTGCAG,8780 fluorescence intensity (a.u.)
21,CATTACTGTTTGCGGTTTCAGACTCTTACCAAACACCACCCGGAGTCACCTAGTGCAG,8720 fluorescence intensity (a.u.)

# Part of the list above, with tabs:
row	Sequence	binding signal
17	GCTCATCTCTCCGCGTGCTTCTTCTTCTTCTCTCTCTAAACGGAGTCACCTAGTGCAG	13000 fluorescence intensity (a.u.)
18	CCTTAATTCCATCTCCTCTCCGTTTTCTTGATTAAATCCTCGGAGTCACCTAGTGCAG	8430 fluorescence intensity (a.u.)

# (listing goes on)

row,Sequence,binding signal
1,ATTATTGTTGTACAGTTCTTGCCTACAGTTCGGTTTTTCTCGGAGTCACCTAGTGCAG,19700 fluorescence intensity (a.u.)
2,ACGCGCGCCGCAACCTCCTCCGCTCGCTCTGCAACCTCGCCGGAGTCACCTAGTGCAG,9700 fluorescence intensity (a.u.)
3,GCCGCCGTCTCGCGCCGCCACCTCCGCCTCGCGCCGCCACCGGAGTCACCTAGTGCAG,9720 fluorescence intensity (a.u.)
4,CCAGGTGGCGGCTAGGGTTAGGGTTTTAGGGTGAACTCACCGGAGTCACCTAGTGCAG,8690 fluorescence intensity (a.u.)
5,TTTCTTTTCTCGGTGTCCGGTGTCCCTTGGTGTGTTGCTACGGAGTCACCTAGTGCAG,10400 fluorescence intensity (a.u.)
6,CCGCATATACTCTCTCTCTCTCTCTCTCTCTGCTTCTGGACGGAGTCACCTAGTGCAG,10500 fluorescence intensity (a.u.)
7,CCACCACTCACCTCACTCACGTGACGACTCGTCCAACCCACGGAGTCACCTAGTGCAG,10900 fluorescence intensity (a.u.)
8,TTATGAAGTCGGCCAGTTGTTGTCGTATATAACCGAAAATCGGAGTCACCTAGTGCAG,8820 fluorescence intensity (a.u.)
9,TGTATTTCTATTGGACTCTCCTTTTCTTTTTTTTCTTTTTCGGAGTCACCTAGTGCAG,9580 fluorescence intensity (a.u.)
10,GCTTTATGTAGATATCTCTATCACTCGCTCGCTGGACGACCGGAGTCACCTAGTGCAG,9470 fluorescence intensity (a.u.)
11,ACGACCACTTCCGCGACGAGATCACCGTAGCGTTACAGCACGGAGTCACCTAGTGCAG,8720 fluorescence intensity (a.u.)
12,GCTCTTGTTTGTCCCGGCTTCCCTGTACGTATGTGTTTCCCGGAGTCACCTAGTGCAG,11500 fluorescence intensity (a.u.)
13,GCGTGCTAAACCCTTGTGATCCGTGTATTTAACCACCTTCCGGAGTCACCTAGTGCAG,11700 fluorescence intensity (a.u.)
14,TACCTACCTCGTGAAACTTTGCCGGCAGCATGAACTGATCCGGAGTCACCTAGTGCAG,8570 fluorescence intensity (a.u.)
15,GTGTGACATGTGTAAAAGTTTTTTCTAGCAATTTTTTTTCCGGAGTCACCTAGTGCAG,9090 fluorescence intensity (a.u.)
16,GTCCATTTTATTCCTTGAATTTCGCTCGAAGGTTATTTTTCGGAGTCACCTAGTGCAG,8640 fluorescence intensity (a.u.)
17,AGCACCGATTTCTATAGCACGATTGGCCAGTTGCAACTTGCGGAGTCACCTAGTGCAG,8080 fluorescence intensity (a.u.)
18,AGTCAGCATAGACCCACGTGGGCCCCATATGTCAGGATGCCGGAGTCACCTAGTGCAG,8490 fluorescence intensity (a.u.)
19,TCCTCTACGTGAATTCTACTCTTCTACTGCTTTACGTGTCCGGAGTCACCTAGTGCAG,8900 fluorescence intensity (a.u.)
20,CCGCGGCCCAGCTTACAGGCCCAGTTTTTTTCTCCAATACCGGAGTCACCTAGTGCAG,8520 fluorescence intensity (a.u.)
21,GTACAATTAGTTTTTTCTTTATCGATATTTAATACTCTTTCGGAGTCACCTAGTGCAG,11700 fluorescence intensity (a.u.)

# 4 neighbouring entries already listed, for reference:
row,Sequence,binding signal
17,GGTCAATGGCCGTCGTCGGTCGCATGCAGCTTCACGTTTCCGGAGTCACCTAGTGCAG,8530 fluorescence intensity (a.u.)
18,CATTTTACATGTTCTGCAGCATTCTCTTATGTAATTCAAACGGAGTCACCTAGTGCAG,8780 fluorescence intensity (a.u.)
19,GTTCCGTTTTCCGCGCGCACGCTTCCCAAACTATTAAATGCGGAGTCACCTAGTGCAG,11900 fluorescence intensity (a.u.)
20,GTCTGTCTTCGTCACCCCTGCCGCTGCCGCTGCCGCTGCCCGGAGTCACCTAGTGCAG,8380 fluorescence intensity (a.u.)
